The results in this text go back to paper PMC6098069.

Amino acid sequences for entries named in this document (tags omitted). Residues count along the entry.
UniProt P08575, residues 26-1306: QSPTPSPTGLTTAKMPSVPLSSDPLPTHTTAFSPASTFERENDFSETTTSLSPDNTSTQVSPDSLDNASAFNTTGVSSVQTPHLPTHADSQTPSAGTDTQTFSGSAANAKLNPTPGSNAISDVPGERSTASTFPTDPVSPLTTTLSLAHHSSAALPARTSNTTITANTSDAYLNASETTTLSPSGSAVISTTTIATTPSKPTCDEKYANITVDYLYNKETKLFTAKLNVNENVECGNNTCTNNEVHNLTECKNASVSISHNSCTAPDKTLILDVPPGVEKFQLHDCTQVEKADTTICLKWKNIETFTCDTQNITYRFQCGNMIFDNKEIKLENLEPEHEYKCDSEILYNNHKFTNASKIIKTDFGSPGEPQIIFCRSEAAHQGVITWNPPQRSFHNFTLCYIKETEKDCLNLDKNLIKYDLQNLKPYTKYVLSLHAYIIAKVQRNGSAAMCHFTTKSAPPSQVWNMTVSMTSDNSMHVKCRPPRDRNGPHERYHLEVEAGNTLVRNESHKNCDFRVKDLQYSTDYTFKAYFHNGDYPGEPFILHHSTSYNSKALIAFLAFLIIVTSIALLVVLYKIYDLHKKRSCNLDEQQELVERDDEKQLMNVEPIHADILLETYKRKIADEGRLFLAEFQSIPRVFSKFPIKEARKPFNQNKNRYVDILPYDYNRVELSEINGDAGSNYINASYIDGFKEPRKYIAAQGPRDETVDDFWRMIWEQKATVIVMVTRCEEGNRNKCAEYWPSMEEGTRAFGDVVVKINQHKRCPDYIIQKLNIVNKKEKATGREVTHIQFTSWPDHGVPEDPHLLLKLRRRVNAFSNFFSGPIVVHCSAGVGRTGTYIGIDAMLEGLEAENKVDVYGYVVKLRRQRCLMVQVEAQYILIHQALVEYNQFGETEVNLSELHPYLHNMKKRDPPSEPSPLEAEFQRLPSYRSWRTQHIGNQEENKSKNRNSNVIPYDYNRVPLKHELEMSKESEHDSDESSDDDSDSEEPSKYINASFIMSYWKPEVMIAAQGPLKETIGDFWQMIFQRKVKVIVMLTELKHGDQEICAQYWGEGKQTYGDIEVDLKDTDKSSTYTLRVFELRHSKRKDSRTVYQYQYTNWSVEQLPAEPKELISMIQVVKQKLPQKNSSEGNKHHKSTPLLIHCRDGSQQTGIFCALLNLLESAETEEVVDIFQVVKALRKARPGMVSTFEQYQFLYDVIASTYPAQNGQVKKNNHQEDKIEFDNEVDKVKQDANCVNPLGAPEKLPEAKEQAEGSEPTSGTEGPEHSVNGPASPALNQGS

No constants are given. Whether binding was seen depends on the method and setting. In cells and extracts the contact can be indirect. Some binding calls cover weakened binding; strength is not graded here.

Experiment [1] addresses CD45 (full-length isoform CD45RABC), endogenous on human tonsillar naive B cells (human (endogenous in tonsillar naive B cells)) (UniProt P08575). The experiment is described as follows: co-IP; as for recombinant Gal-9 but no recombinant Gal-9 added; 200 ug B cell lysate in 2% NP-40 buffer; IP with anti-Gal-9 or anti-CD45 antibody on Protein G-agarose; blot for Gal-9 or CD45.

Experiment [2] has the same target. The experiment is described as follows: co-IP; naive B cells labelled with 2 ug/mL recombinant Gal-9 in 1% BSA for 30 min on ice, washed, lysed in 2% NP-40 buffer (150 mM NaCl, 0.5 mM Tris, 1 mM EDTA); IP overnight with anti-Gal-9 or anti-CD45 antibody on Protein G-agarose; blot for Gal-9 or CD45; controls: isotype antibody, 200 mM lactose; only the binder purified.

For the substance “endogenous Gal-9 of human tonsillar B cells (from UniProt O00182 1-355)”, the binding entry in experiment [1] is reported as “binds”. In the case of “recombinant, E.coli-derived human Gal-9 (galectin-9) (from UniProt O00182 1-355)”, the binding result in experiment [2] is listed as “binds”.
